Results from PMC3348450 (Investigational New Drugs, 2011).

Tests used:
[1] = system: VEGFR 1; settings: cited from earlier work
[2] = system: VEGFR 2; settings: cited from earlier work
[3] = system: VEGFR 3; settings: cited from earlier work
[4] = Treatment-related adverse events; type: in vivo, human
Procedure, shortened: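 Adverse events were graded by CTCAE version 3.0 throughout both studies in 18 Japanese patients on the oral test compound, taken in the fed state. Study 1 gave 5 mg BID continuously, six patients first receiving a single 5-mg dose. Study 2 gave single 5-, 7- and 10-mg doses, then 5 mg BID. Titration was to 7 then 10 mg BID; reduction was to 3 or 2 mg BID.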

[5] = Treatment-related laboratory abnormalities, phase I Study 1 and Study 2; type: in vivo, human; settings: treatment-related laboratory abnormality; pooled; N = 18
Procedure, shortened: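 Laboratory abnormalities were pooled across 18 Japanese patients with solid tumours from two studies. Patients took the oral test compound in the fed state: 5 mg BID continuous dosing, preceded by single doses in some patients (5 mg; or 5, 7 and 10 mg in Study 2). Dose could be raised to 7 then 10 mg BID, or cut to 3 or 2 mg BID for toxicity.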

[6] = treatment-related, pooled, N = 18

CNC(=O)c1ccccc1Sc1ccc2c(/C=C/c3ccccn3)n[nH]c2c1 [axitinib, Axitinib]
Concentration at which receptor tyrosine kinase inhibition is seen [1]: picomolar concentrations | Concentration at which receptor tyrosine kinase inhibition is seen [2]: picomolar concentrations | Concentration at which receptor tyrosine kinase inhibition is seen [3]: picomolar concentrations | Grade 3/4 fatigue ([4]; Study 2, proactive thyroid hormone replacement therapy): no cases | Fatigue, grade 3/4 ([4]; treatment-related, pooled Study 1 and Study 2, N = 18): 5 (28) n (%) | Anorexia, grade 3/4 [4, 6]: 0 n (%) | Constipation, grade 3/4 [4, 6]: 0 n (%) | Diarrhea, grade 3/4 [4, 6]: 0 n (%) | Epistaxis, grade 3/4 [4, 6]: 0 n (%) | Headache, grade 3/4 [4, 6]: 0 n (%) | Hoarseness, grade 3/4 [4, 6]: 0 n (%) | Hypertension, grade 3/4 [4, 6]: 6 (33) n (%) | Nausea, grade 3/4 [4, 6]: 0 n (%) | Rash, grade 3/4 [4, 6]: 0 n (%) | Stomatitis, grade 3/4 [4, 6]: 0 n (%) | ALP increased, grade 3/4 [5]: 1 (6) n (%) | AST increased, grade 3/4 [5]: 0 n (%) | Hematuria, grade 3/4 [5]: 0 n (%) | Proteinuria, grade 3/4 [5]: 2 (11) n (%) | TSH decreased, grade 3/4 [5]: 0 n (%) | TSH increased, grade 3/4 [5]: 0 n (%)
